This assay has as its system Salmonella enterica serovar Typhimurium SL1344. Description: bacterial growth OD600 after 18 h with compound and polymyxin B; higher = more bacterial growth (less inhibition). To be noted: 50 µM, Mueller-Hinton broth.

The other results are listed elsewhere or left out. These are raw signals, not scaled to a control.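 First-pass screen: polymyxin B was added at a level that permeabilizes the Salmonella outer membrane while sparing the inner membrane. DMSO wells, with and without polymyxin B, defined maximum growth. Because plates differed from one another, each plate's data were ranked separately and the compounds with the lowest OD600 were carried forward as hits.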

The record followed here is the supplement of paper PMC12889115.

Consider `O=C(Cc1c[nH]c2ccccc12)NCCN1Cc2ccccc2OC(c2ccccc2)C1` (configuration not stated), for which, for the setting “polymyxin B 0.75 µg/mL”, the “bacterial growth OD600” value stood at 0.61. The same measure, in the same setting: then `OCC1(Cc2ccccc2F)CCCN(C2CCN(Cc3ccccc3)CC2)C1` (configuration not stated), with 0.859. Same read-out and setting: the value for `COc1cc2nc(N(C)C)c(CNCCc3cccc(Cl)c3)cc2c(OC)c1OC` was 0.775.

In the case of `O=C(C1CCCN(Cc2nc(C(c3ccccc3)c3ccccc3)no2)C1)N1CCOCC1` (configuration not stated), for the setting “polymyxin B 1 µg/mL”, the “bacterial growth OD600” value is 0.988.

Consider `CCOC(=O)CC1(NC(=O)C2CCC(=O)N(CCN3CCOCC3)C2)CCCCC1` (configuration not stated), for which the “bacterial growth OD600” value (polymyxin B 1 µg/mL) amounted to 1.23. Consider `COc1cccc(CCC2CCCN(C(=O)CN3CCOC3=O)C2)c1` (configuration not stated), for which the “bacterial growth OD600” value (polymyxin B 0.75 µg/mL) worked out at 0.809. As to `Cc1cc(C)c(C(=O)N2CCC(C3CCN(Cc4cccnc4)CC3)C2)o1` (configuration not stated), the “bacterial growth OD600” value (polymyxin B 0.75 µg/mL) was 0.841.

For `Cc1cc(C)n(-c2cccc(C(=O)NCC3Cc4cccc(-c5ncccn5)c4O3)c2)n1` (configuration not stated), the “bacterial growth OD600” value (polymyxin B 0.75 µg/mL) came out at 0.859. Regarding `COC(=O)C(CCSC)NC(=O)c1cc(Cl)ccc1OC1CCN(C(C)=O)CC1` (configuration not stated), the “bacterial growth OD600” value (polymyxin B 1 µg/mL) is 0.97. Take `O=C1CCCCN1CC(=O)N1CCCC(CCc2ccc(F)c(F)c2)C1` (configuration not stated): the “bacterial growth OD600” value (polymyxin B 0.75 µg/mL) turned out to be 0.849.

Regarding `O=C(NCc1cccc(OC(F)(F)F)c1)C1CC(Cc2cccc(F)c2)=NO1` (configuration not stated), under “polymyxin B 0.75 µg/mL”, the “bacterial growth OD600” value is 0.752.

Regarding `COC(=O)CC(NC1CCN(c2ccc(NC(=O)Cc3cccc(Cl)c3)cc2)CC1)C(=O)OC` (configuration not stated), the “bacterial growth OD600” value (polymyxin B 0.75 µg/mL) was found to be 0.823. `O=C(NC1CCCc2nc(-c3cccnc3)ncc21)C1CCC1` (configuration not stated): under “polymyxin B 0.75 µg/mL”, the “bacterial growth OD600” value stood at 0.848. On the same count and under the same terms, then `COc1ccc(CN2CC[C@@H](N3CCCCCC3)[C@H](O)C2)c(OC)c1OC`, with 0.86. On to `O=C(Nc1ccnn1C1CCN(Cc2cccc(-c3ccco3)c2)CC1)C1CC1`, for which the “bacterial growth OD600” value (polymyxin B 1 µg/mL) was found to be 0.87.

`Cc1cc(F)ccc1NC(=O)CCC1CCCN(C(=O)C(=O)c2ccco2)C1` (configuration not stated): where the note is “polymyxin B 1 µg/mL”, the “bacterial growth OD600” value came to 1.09. Regarding `Cc1cccc(CN(CCN2CCCCC2)CC2CCCN(C3CCCC3)C2)n1` (configuration not stated), the “bacterial growth OD600” value (polymyxin B 0.75 µg/mL) amounted to 0.879.

Take `O=C1CC(NCc2ccccc2Cn2cccn2)CN1Cc1ccc(F)cc1` (configuration not stated): the “bacterial growth OD600” value (polymyxin B 1 µg/mL) came out at 0.923. With `O=C(C1CC(Cc2ccc(F)cc2)=NO1)N1CCC(c2ccccc2F)C1` (configuration not stated), the “bacterial growth OD600” value (polymyxin B 0.75 µg/mL) turned out to be 0.829. Regarding `O=C(c1ccc(NCC2CC2)nc1)N1CCCCC1CCn1cccn1` (configuration not stated), the “bacterial growth OD600” value (polymyxin B 1 µg/mL) was determined as 0.925. `CO[C@H]1[C@H](NC(=O)CSC)c2ccccc2C12CCN(Cc1ccc(OCCO)cc1)CC2`: the “bacterial growth OD600” value (polymyxin B 0.75 µg/mL) came out at 0.909. Take `CC(C)C[C@H](NC(=O)c1csc2nc(-c3cccc(C(F)(F)F)c3)cn12)C(N)=O`: the “bacterial growth OD600” value (polymyxin B 1 µg/mL) was -0.001. The same measure, in the same setting: then `O=C(NC1CC(=O)N(Cc2cccc(F)c2)C1)c1cccs1` (configuration not stated), with 1.11. With `COCCN1C(=O)CC(CC(=O)N2CCN(c3ccc(Cl)cn3)CC2)(c2ccccc2F)C1=O` (configuration not stated), the “bacterial growth OD600” value (polymyxin B 0.75 µg/mL) was determined as 0.688.

For `Cc1nc(N2CCCCCCC2)ncc1C(C)NS(=O)(=O)N(C)C` (configuration not stated), where the note is “polymyxin B 1 µg/mL”, the “bacterial growth OD600” value is 0.925. The same measure, in the same setting: the value for `O=C(Nc1ccc(Oc2cccnc2)cc1)C1CCCCN1Cc1ccccc1F` (configuration not stated) was 0.012. Consider `Cc1oc(-c2cccc(NC(=O)C3CCOCC3)c2)nc1CNC(=O)CCc1ccccc1`, for which the “bacterial growth OD600” value (polymyxin B 0.75 µg/mL) is 0.827. The same measure, in the same setting: then `O=C(c1ccc2oc(CCc3ccccc3)nc2c1)N1C[C@@H]2CCC[C@H]1C2`, with 0.42. For the compound `CN(Cc1ccccc1)Cc1nc(C2CC2)no1`, the “bacterial growth OD600” value (polymyxin B 1 µg/mL) is 0.926.

Consider `CC(NC(=O)c1ccc(N2CCC(NC3CCCC3)CC2)cc1)c1ccccc1` (configuration not stated), for which the “bacterial growth OD600” value (polymyxin B 0.75 µg/mL) was found to be 0.884. As to `O=C(c1coc(COc2cccc(F)c2F)n1)N1CCCCO1`, under “polymyxin B 1 µg/mL”, the “bacterial growth OD600” value is 0.842. For `CCOC(=O)N1CCC(N(C)CC2CCN(CCc3ccc(F)cc3)CC2)CC1`, the “bacterial growth OD600” value (polymyxin B 1 µg/mL) came to 0.92.
